The values that follow come from article PMC3753650.

Construct, isoform or probe ends are uncertain for at least one entry. For some of these results: The comparison behind a weaker result is the experiment's own reference, which may not be listed here. For some of these results: At least one verdict rests on a figure or table, not on a statement of the authors.

The subject of series [1] is RNA polymerase sigma70 holoenzyme, molecular beacon derivative (Ec Esigma70 beacon) (Escherichia coli). Briefly: RNAP beacon fluorescence. The conditions noted are these: Equilibrium RNAP molecular beacon fluorescence, 25 C and 1 nM RNAP in competition assays, Kd error 20% (>0.4 nM), ~50% (0.2-0.4 nM).
For series [2] the test system is unchanged. Description: competition with a labelled probe. The conditions noted are these: 25 C, Equilibrium RNAP molecular beacon fluorescence, 25 C and 1 nM RNAP in competition assays, Kd error 20% (>0.4 nM), ~50% (0.2-0.4 nM).
[3] abbreviates: range over variants, letters put together from the description.

Consider “TATTTGACATCAGGAAAATTTTTCTGTAT / ACAGAAAAATTTTCCTGATGTCAAATA [probe 3]”, for which, in series [1] (weaker than probe 2), the binding result is reported as “binds more weakly”. In the case of “TATTTGACATCAGGAAAATTTTTCTGTATAAT / ACAGAAAAATTTTCCTGATGTCAAATA [probe 6]”, in series [1] (too tight for direct Kd), the binding result was “binds”.

On to “TATTTGACATCAGGAAAATTTTTCTGTAT (double strand) [probe 20]”, for which the binding result in series [1] (-10 T/A bp inhibits binding relative to probe 19) was “binds more weakly”. For “TATTTGACATCAGGAAAATTTTTCTGTAA / ACAGAAAAATTTTCCTGATGTCAAATA [probe 3(-10A)]”, the binding result in series [1] (setting [3]) is given as “binds more weakly”. For the sequence “GCTAAAATTTTTTTTAAAAGTATTTGACATCAGGAAAATTTTTTG (double strand) [[-58/-14]]”, the binding result in series [2] (displaces probe 8 from RNAP beacon) is “binds”. Consider “TATTTGACATCAGGAAAATTTTTTGGTA / ACCAAAAAATTTTCCTGATGTCAAATA [probe 16]”, for which the binding result in series [1] (tighter than probe 15) is listed as “binds”. Same read-out and setting: next, “TATTTGACATCAGGAAAATTTTTTGGTATAA / ACCAAAAAATTTTCCTGATGTCAAATA [probe 17]”: “binds”.

Turning to “TATTTGACATCAGGAAAATTTTTTGGAA / TCCAAAAAATTTTCCTGATGTCAAATA [probe 16(-12A)]”, in series [1] (about equal to 15(-12A)), the binding result was “binds more weakly”. In the case of “TATTTGACATCAGGAAAATTTTTCTGTAG / ACAGAAAAATTTTCCTGATGTCAAATA [probe 3(-10G)]”, the binding result in series [1] (setting [3]) is “binds more weakly”. With “TATTTGCTTTCAGGAAAATTTTTCTGTATAAT / CAGAAAAATTTTCCTGAAAGCAAATA [probe 8]”, the binding result in series [2] ([-58/-14] competitor) is listed as “binds”. “TATTTGACATCAGGAAAATTTTTCTGTA / ACAGAAAAATTTTCCTGATGTCAAATA [probe 2]”: the binding result in series [1] (tighter than probe 3) is “binds”. Consider “GGAAAATTTTTTGGTATAATAGA / ACCAAAAAATTTTCC [probe 9]”, for which the binding result in series [1] is listed as “binds”.

Turning to “TATTTGACATCAGGAAAATTTTTCTGTAGTTT / ACAGAAAAATTTTCCTGATGTCAAATA [probe 10]”, in series [1], the binding result is given as “binds”. Consider “TGGTTGACTTTTGCCAGATACTGAGGCTGGCTATG / GCCTCAGTATCTGGCAAAAGTCAACCA [probe 14]”, for which, in series [1] (considerably tighter than probe 12), the binding result is recorded as “binds”.

“TATTTGACATCAGGAAAATTTTTCTGTTGTTT / ACAGAAAAATTTTCCTGATGTCAAATA [probe 11]”: the binding result in series [1] was “binds”.

“TATTTGACATCAGGAAAATTTTTTGGT (double strand) [probe 15]”: in series [1], the binding result is “binds”.
